Reference: the supplement of paper PMC3334620
In all, about 33,000 sequences were measured (“E-score (-0.5 to 0.5)”: median about -0.0034, highest 2% from about 0.25 on). This is one part of the list.

molecular target: T1, Yap3 (UniProt P38749); assay: PBM E-score (8-mer binding enrichment) (E-score (-0.5 to 0.5)); higher = stronger / more preferred TF binding; details: protein concentration: 100 nM; construct: GST-full length
T1 sequence: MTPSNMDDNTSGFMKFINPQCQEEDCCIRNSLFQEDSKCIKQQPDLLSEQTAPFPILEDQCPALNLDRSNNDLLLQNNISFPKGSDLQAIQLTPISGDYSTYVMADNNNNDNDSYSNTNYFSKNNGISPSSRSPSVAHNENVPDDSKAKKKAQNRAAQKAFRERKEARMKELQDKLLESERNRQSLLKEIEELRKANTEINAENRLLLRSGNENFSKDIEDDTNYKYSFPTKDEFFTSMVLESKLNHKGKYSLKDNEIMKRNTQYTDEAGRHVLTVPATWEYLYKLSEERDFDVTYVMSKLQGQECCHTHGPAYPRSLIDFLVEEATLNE
Method in brief: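 The E-score, a modified Wilcoxon-Mann-Whitney statistic, was computed by the Universal PBM Analysis Suite for every ungapped eight-base word pooled with its reverse complement. Scans behind it were normalised with masliner after bound GST-tagged yeast transcription factors were detected with fluorescent anti-GST. The proteins, at about 100-200 nM, had been applied to universal all-10-mer Agilent arrays made double-stranded by primer extension.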

Row | Sequence | PBM E-score
1 | AGGGGGTC | -0.414
2 | ATGGCCTA | -0.06
3 | ATTAACGG | 0.14
4 | GTTGAGAA | -0.0265
5 | TCCCTGCA | -0.0631
6 | GACGTGCC | -0.337
7 | GTGTCAGA | 0.0215
8 | GTACTGCA | -0.0543
9 | ACTGCTCT | 0.0428
10 | GACCAATC | 0.165
11 | ACTAAGAG | 0.0259
12 | AGTAATAA | 0.254
13 | AGCGGTGA | -0.129
14 | CGCATGCA | 0.124
15 | AGGCCGTA | -0.00589
16 | AGAAAGAC | 0.0627
17 | GAAATGCC | 0.0869
18 | GATTTCGA | 0.12
19 | CAGAACAG | 0.105
20 | AGTCTAGG | -0.166
21 | CAGGGTTC | -0.119
22 | CATTGGGG | -0.0497
23 | AAAGCGAA | 0.0836
24 | ATCCATTC | 0.149
25 | AGTGTTGA | -0.00013

Row | Sequence | PBM E-score
26 | AAGTGATG | 0.133
27 | AGGGGCAA | 0.0575
28 | AATTGCAC | 0.156
29 | AGTTCCAA | 0.00636
30 | TATTTAAA | 0.225
31 | GTAAGACA | 0.108
32 | AATACCCA | 0.0353
33 | AAACAAGG | -0.00676
34 | GGGACCGA | -0.124
35 | GGTATTAC | 0.254
36 | CGTACTGC | 0.0305
37 | AAGTTGAG | 0.104
38 | GGATTCGA | -0.117
39 | AAGACTGT | -0.0596
40 | ACTTCTCG | 0.159
41 | AACTCGTC | 0.0786
42 | ACGAAACC | 0.0818
43 | CAGGTCGA | 0.0474
44 | AATTCGAG | 0.022
45 | GCACCGAA | 0.113
46 | CACTCAGC | -0.0393
47 | CCATTTAA | 0.0936
48 | ATCCTTGG | 0.0236
49 | AGAAAAAA | 0.133
50 | GCCCGCGA | -0.101

Row | Sequence | PBM E-score
51 | AGCGGTAG | -0.116
52 | CAGGGGGC | -0.307
53 | GACGATGA | -0.0458
54 | CCGCGTTC | 0.00571
55 | GTCCTGGA | -0.13
56 | ACCTGTAT | -0.0287
57 | AAAATCGG | 0.0216
58 | CGCGATGC | -0.227
59 | TGTGTCAA | 0.094
60 | CAGGACGC | -0.23
61 | CAAATATA | 0.0799
62 | CTTCTCCA | -0.0794
63 | AGTTCCCA | 0.0628
64 | ACAGGTGA | 0.0927
65 | AGGGTCCG | -0.262
66 | CATATCGG | 0.00508
67 | GTTTGAGA | -0.0917
68 | CAGTACCG | -0.0765
69 | TAAGCAAA | 0.0998
70 | GCAACGGA | 0.118
71 | ACTGGCCG | -0.273
72 | AGGATGTA | 0.0873
73 | GAAAAATC | 0.127
74 | CTGTCTAC | 0.03
75 | GACGTTTA | -0.0849

Part of the list above, as comma-separated lines:
Row,Sequence,PBM E-score
57,AAAATCGG,0.0216
61,CAAATATA,0.0799
63,AGTTCCCA,0.0628
64,ACAGGTGA,0.0927
66,CATATCGG,0.00508

Further records.

Row | Sequence | PBM E-score
76 | AACTCACC | -0.0151
77 | ACAATCTC | -0.0263
78 | ATAGAAGC | 0.104
79 | CGTAGAAC | -0.195
80 | GGCCCCCA | -0.482
81 | CTACTAGC | 0.097
82 | ACGACCCC | -0.109
83 | AACGGCAT | 0.249
84 | ACAACAGT | 0.0285
85 | CAGATGAC | -0.0623
86 | GGGGGGTA | -0.393
87 | AACAATTG | -0.0238
88 | GACTTACC | -0.11
89 | CTCAGCGC | -0.114
90 | ACTCAAAC | 0.0791
91 | ATGAAGCC | 0.0364
92 | ACTGAGTC | -0.0122
93 | GTGATATA | 0.0989
94 | CACCTAGC | -0.196
95 | ATCTCCGA | 0.0977
96 | TCTTCACA | 0.128
97 | CGCACAAC | 0.127
98 | CAGCTGAA | -0.051
99 | CCGAGTAG | 0.0617
100 | ATCCCGGG | -0.0376

Row | Sequence | PBM E-score
101 | GGCCGCGA | -0.214
102 | AGGAATTG | 0.207
103 | ACGGAAAG | 0.144
104 | GACGCTAC | -0.0197
105 | GATGCTGA | -0.159
106 | AATGAATA | 0.109
107 | GTACCGCA | 0.00409
108 | CGGACGAG | -0.182
109 | GCCTGTCC | -0.0695
110 | CCAACACG | 0.0734
111 | TGTCACAA | 0.133
112 | CTTACCAA | 0.212
113 | CTATACCC | -0.078
114 | ACTAACCT | 0.111
115 | CTTTACTC | 0.203
116 | CGGGGCTA | -0.274
117 | AAGTCTTG | -0.07
118 | GGGTTTTA | 0.108
119 | ACGCCCGG | -0.243
120 | CTGCTCCC | -0.122
121 | TCCTTAAA | 0.00477
122 | AGTACCCA | 0.0173
123 | CACCCTCA | -0.133
124 | AAAAGCTA | 0.0332
125 | ATAAAGTA | 0.286

Row | Sequence | PBM E-score
126 | CACGAGCA | -0.0731
127 | AAACCTGG | 0.0037
128 | GATCAACA | -0.0544
129 | CGTGAGAC | -0.00333
130 | AATCTCGG | 0.0476
131 | TCCGCAGA | -0.0532
132 | ATCCGCGC | -0.0738
133 | CAGCCTCC | -0.321
134 | ACTCGCAA | 0.0289
135 | ATGTTACG | 0.0978
136 | CATACATG | 0.0348
137 | GGGCGCGA | -0.154
138 | CTCCAAGC | -0.00131
139 | AGAGGAAG | -0.0758
140 | GGCCTCAA | -0.0177
141 | AGCCCCGG | -0.257
142 | AAATCACG | 0.158
143 | CCCTCAGC | -0.209
144 | CCCGCGGC | -0.0921
145 | ATCCCTGG | -0.265
146 | CGGGACTC | -0.217
147 | CTTATTCA | 0.106
148 | TAATAAGA | 0.136
149 | ATTAAAAT | 0.169
150 | AGAAATAT | 0.162

Row | Sequence | PBM E-score
151 | GACGTGGC | -0.217
152 | CGGAGTAA | -0.0385
153 | CGTCGAGA | 0.042
154 | AATAACTA | 0.0853
155 | GACGATCA | -0.0887
156 | GTCATAAA | 0.221
157 | ACGTCGCG | -0.026
158 | AAACACGC | 0.189
159 | GACCTCTA | -0.246
160 | CAAGTAGG | -0.053
161 | CAACTCCA | 0.0135
162 | AATTGGAT | 0.168
163 | GCTTTGGA | 0.0763
164 | AACATCGC | -0.141
165 | AGGATAAT | 0.186
166 | ATGCAAGA | 0.0402
167 | GAAGTCTA | -0.109
168 | ACCAGGCG | -0.133
169 | TGTGCGAA | -0.0729
170 | AACATCTT | -0.135
171 | AGCATCGA | 0.145
172 | CCATTAAG | -0.141
